These are yes or no findings as the source states them, for the method shown.
T1: hDdi2 UBL domain (residues 1-76) (human) (UniProt Q5TDH0)
T1 sequence: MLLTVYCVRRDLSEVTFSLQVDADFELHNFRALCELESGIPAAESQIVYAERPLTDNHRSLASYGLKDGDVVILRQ

Sequences of proteins named here, by UniProt entry; tags and fusion partners are left off. Residues count along the entry.
UniProt Q15843, residues 1-76: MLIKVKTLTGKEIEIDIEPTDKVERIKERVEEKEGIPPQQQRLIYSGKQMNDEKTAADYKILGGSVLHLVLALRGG


Legend:
[1] = molecular target: human ubiquitin (human) (UniProt P0CG48); test: NMR titration; 15N-labelled UBQ (0.1 mM) with unlabelled peptide; 15N/1H-HSQC chemical shift perturbation; 50 mM sodium phosphate, pH 6.0 and pH 7.4, 25 °C; 1:1 model for the Kd; both purified
[2] = molecular target: T1, hDdi2 UBL domain (residues 1-76) (human); test: NMR titration; 15N-labelled hDdi2 UBL (0.1 mM) with peptide to a final concentration of 1.9 mM; 50 mM sodium phosphate, pH 7.4, 25 °C; both purified
[3] = molecular target: Nedd8 (UniProt Q15843); test: NMR titration; NMR chemical shift perturbation experiments with Nedd8 (expressed 15N-labelled); details in the Supplementary Information; both purified

Row | Binder | binding [1] | binding [2] | binding [3]
1 | AELEQIAEDALEKEDSQEAA (C-terminal amide) [hDdi2-scrambled UIM peptide] | no binding (tested: 1.9 mM) | no binding (tested: 1.9 mM) | –
2 | EEIADQELAEALQKSAEDAE (C-terminal amide) [hDdi2-UIM peptide] | – | no binding (tested: 1.9 mM) | no binding
3 | hDdi2 UBL domain (residues 1-76) (domain or fragment, UniProt Q5TDH0 1-76) MLLTVYCVRRDLSEVTFSLQVDADFELHNFRALCELESGIPAAESQIVYAERPLTDNHRSLASYGLKDGDVVILRQ | – | – | no binding

— paper PMC4962041
